Assay results taken from the supplement of paper PMC11546906.
Structures can show the parent of a compound that is named as a salt. The list shows a part of the results. Single values are uncertain here, since repeats match poorly.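 A screen tested FDA-approved drugs combined with one-eighth-MIC colistin against a clinical mcr-1-positive, multidrug-resistant E. coli isolate, measuring OD600 at 24 h. Controls were untreated bacteria (growth) and broth alone (blank). An OD600 under 0.2 marked a combination as active.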

system: Escherichia coli 42 (mcr-1-positive clinical isolate); assay: OD600 after 24 h growth with compound plus colistin (absorbance units (OD600)); higher = more bacterial growth (less inhibition); conditions: first compound 25 µM; colistin concentration 0.5 ug/mL; incubation time 24 h; 37 °C

| Compound | OD600 |
| --- | --- |
| C[C@@H]1C[C@H]2[C@@H]3CCC4=CC(=O)C=C[C@]4(C)[C@@]3(F)[C@@H](O)C[C@]2(C)[C@@]1(O)C(=O)CO [Dexamethasone] + CCC(C)CCCC(=O)N[C@@H](CCN)C(=O)N[C@H](C(=O)N[C@@H](CCN)C(=O)N[C@H]1CCNC(=O)[C@H]([C@@H](C)O)NC(=O)[C@H](CCN)NC(=O)[C@H](CCN)NC(=O)[C@H](CC(C)C)NC(=O)[C@@H](CC(C)C)NC(=O)[C@H](CCN)NC1=O)[C@@H](C)O [colistin] | inactive: 1.11 |
| C[C@H]1c2cccc(O)c2C(O)=C2C(=O)[C@]3(O)C(O)=C(C(N)=O)C(=O)[C@@H](N(C)C)[C@@H]3[C@@H](O)[C@@H]21 [Doxycycline] + CCC(C)CCCC(=O)N[C@@H](CCN)C(=O)N[C@H](C(=O)N[C@@H](CCN)C(=O)N[C@H]1CCNC(=O)[C@H]([C@@H](C)O)NC(=O)[C@H](CCN)NC(=O)[C@H](CCN)NC(=O)[C@H](CC(C)C)NC(=O)[C@@H](CC(C)C)NC(=O)[C@H](CCN)NC1=O)[C@@H](C)O [colistin] | inactive: 0.719 |
| CCCS(=O)(=O)Nc1ccc(F)c(C(=O)c2c[nH]c3ncc(-c4ccc(Cl)cc4)cc23)c1F [Vemurafenib] + CCC(C)CCCC(=O)N[C@@H](CCN)C(=O)N[C@H](C(=O)N[C@@H](CCN)C(=O)N[C@H]1CCNC(=O)[C@H]([C@@H](C)O)NC(=O)[C@H](CCN)NC(=O)[C@H](CCN)NC(=O)[C@H](CC(C)C)NC(=O)[C@@H](CC(C)C)NC(=O)[C@H](CCN)NC1=O)[C@@H](C)O [colistin] | inactive: 0.991 |
| CO[C@H]1C(=O)[C@]2(C)[C@@H](OC)C[C@H]3OC[C@@]3(OC(C)=O)[C@H]2[C@H](OC(=O)c2ccccc2)[C@]2(O)C[C@H](OC(=O)[C@H](O)[C@@H](NC(=O)OC(C)(C)C)c3ccccc3)C(C)=C1C2(C)C [Cabazitaxel] + CCC(C)CCCC(=O)N[C@@H](CCN)C(=O)N[C@H](C(=O)N[C@@H](CCN)C(=O)N[C@H]1CCNC(=O)[C@H]([C@@H](C)O)NC(=O)[C@H](CCN)NC(=O)[C@H](CCN)NC(=O)[C@H](CC(C)C)NC(=O)[C@@H](CC(C)C)NC(=O)[C@H](CCN)NC1=O)[C@@H](C)O [colistin] | inactive: 0.937 |
| CC(CN(C)C)CN1c2ccccc2CCc2ccccc21 (stereo not given) [Trimipramine maleate] + CCC(C)CCCC(=O)N[C@@H](CCN)C(=O)N[C@H](C(=O)N[C@@H](CCN)C(=O)N[C@H]1CCNC(=O)[C@H]([C@@H](C)O)NC(=O)[C@H](CCN)NC(=O)[C@H](CCN)NC(=O)[C@H](CC(C)C)NC(=O)[C@@H](CC(C)C)NC(=O)[C@H](CCN)NC1=O)[C@@H](C)O [colistin] | inactive: 1.06 |
| CNC(=O)c1cc(Oc2ccc(NC(=O)Nc3ccc(Cl)c(C(F)(F)F)c3)c(F)c2)ccn1 [Regorafenib monohydrate] + CCC(C)CCCC(=O)N[C@@H](CCN)C(=O)N[C@H](C(=O)N[C@@H](CCN)C(=O)N[C@H]1CCNC(=O)[C@H]([C@@H](C)O)NC(=O)[C@H](CCN)NC(=O)[C@H](CCN)NC(=O)[C@H](CC(C)C)NC(=O)[C@@H](CC(C)C)NC(=O)[C@H](CCN)NC1=O)[C@@H](C)O [colistin] | inactive: 0.967 |
| NC(=O)OCC(COC(N)=O)c1ccccc1 [Felbamate] + CCC(C)CCCC(=O)N[C@@H](CCN)C(=O)N[C@H](C(=O)N[C@@H](CCN)C(=O)N[C@H]1CCNC(=O)[C@H]([C@@H](C)O)NC(=O)[C@H](CCN)NC(=O)[C@H](CCN)NC(=O)[C@H](CC(C)C)NC(=O)[C@@H](CC(C)C)NC(=O)[C@H](CCN)NC1=O)[C@@H](C)O [colistin] | inactive: 0.95 |
| CN(C)c1cc(CNCC(C)(C)C)c(O)c2c1C[C@H]1C[C@H]3[C@H](N(C)C)C(=O)C(C(N)=O)=C(O)[C@@]3(O)C(=O)C1=C2O [Omadacycline] + CCC(C)CCCC(=O)N[C@@H](CCN)C(=O)N[C@H](C(=O)N[C@@H](CCN)C(=O)N[C@H]1CCNC(=O)[C@H]([C@@H](C)O)NC(=O)[C@H](CCN)NC(=O)[C@H](CCN)NC(=O)[C@H](CC(C)C)NC(=O)[C@@H](CC(C)C)NC(=O)[C@H](CCN)NC1=O)[C@@H](C)O [colistin] | inactive: 1.08 |
| Cc1ccc(S(=O)(=O)NC(=O)NN2CCCCCC2)cc1 [Tolazamide] + CCC(C)CCCC(=O)N[C@@H](CCN)C(=O)N[C@H](C(=O)N[C@@H](CCN)C(=O)N[C@H]1CCNC(=O)[C@H]([C@@H](C)O)NC(=O)[C@H](CCN)NC(=O)[C@H](CCN)NC(=O)[C@H](CC(C)C)NC(=O)[C@@H](CC(C)C)NC(=O)[C@H](CCN)NC1=O)[C@@H](C)O [colistin] | inactive: 1.11 |
| Cc1[nH]c(=O)c(C#N)cc1-c1ccncc1 [Milrinone] + CCC(C)CCCC(=O)N[C@@H](CCN)C(=O)N[C@H](C(=O)N[C@@H](CCN)C(=O)N[C@H]1CCNC(=O)[C@H]([C@@H](C)O)NC(=O)[C@H](CCN)NC(=O)[C@H](CCN)NC(=O)[C@H](CC(C)C)NC(=O)[C@@H](CC(C)C)NC(=O)[C@H](CCN)NC1=O)[C@@H](C)O [colistin] | inactive: 1.02 |
| CC(NCCc1ccc(O)cc1)C(O)c1ccc(O)cc1 (stereo not given) [Ritodrine hydrochloride] + CCC(C)CCCC(=O)N[C@@H](CCN)C(=O)N[C@H](C(=O)N[C@@H](CCN)C(=O)N[C@H]1CCNC(=O)[C@H]([C@@H](C)O)NC(=O)[C@H](CCN)NC(=O)[C@H](CCN)NC(=O)[C@H](CC(C)C)NC(=O)[C@@H](CC(C)C)NC(=O)[C@H](CCN)NC1=O)[C@@H](C)O [colistin] | inactive: 0.763 |
| CCC[C@@H]1C[C@@H](C(=O)N[C@@H]([C@H]2O[C@H](SC)[C@H](O)[C@@H](O)[C@H]2O)[C@@H](C)O)N(C)C1 [Lincomycin hydrochloride monohydrate] + CCC(C)CCCC(=O)N[C@@H](CCN)C(=O)N[C@H](C(=O)N[C@@H](CCN)C(=O)N[C@H]1CCNC(=O)[C@H]([C@@H](C)O)NC(=O)[C@H](CCN)NC(=O)[C@H](CCN)NC(=O)[C@H](CC(C)C)NC(=O)[C@@H](CC(C)C)NC(=O)[C@H](CCN)NC1=O)[C@@H](C)O [colistin] | inactive: 1.1 |
| OCCN1CCN(CCCN2c3ccccc3Sc3ccc(Cl)cc32)CC1 [Perphenazine] + CCC(C)CCCC(=O)N[C@@H](CCN)C(=O)N[C@H](C(=O)N[C@@H](CCN)C(=O)N[C@H]1CCNC(=O)[C@H]([C@@H](C)O)NC(=O)[C@H](CCN)NC(=O)[C@H](CCN)NC(=O)[C@H](CC(C)C)NC(=O)[C@@H](CC(C)C)NC(=O)[C@H](CCN)NC1=O)[C@@H](C)O [colistin] | inactive: 0.867 |
| Clc1ccc(COC(Cn2ccnc2)c2ccc(Cl)cc2Cl)c(Cl)c1 (stereo not given) [Miconazole nitrate] + CCC(C)CCCC(=O)N[C@@H](CCN)C(=O)N[C@H](C(=O)N[C@@H](CCN)C(=O)N[C@H]1CCNC(=O)[C@H]([C@@H](C)O)NC(=O)[C@H](CCN)NC(=O)[C@H](CCN)NC(=O)[C@H](CC(C)C)NC(=O)[C@@H](CC(C)C)NC(=O)[C@H](CCN)NC1=O)[C@@H](C)O [colistin] | inactive: 1.07 |
| CN1CC2c3ccccc3Oc3ccc(Cl)cc3C2C1 (stereo not given) [Asenapine Maleate] + CCC(C)CCCC(=O)N[C@@H](CCN)C(=O)N[C@H](C(=O)N[C@@H](CCN)C(=O)N[C@H]1CCNC(=O)[C@H]([C@@H](C)O)NC(=O)[C@H](CCN)NC(=O)[C@H](CCN)NC(=O)[C@H](CC(C)C)NC(=O)[C@@H](CC(C)C)NC(=O)[C@H](CCN)NC1=O)[C@@H](C)O [colistin] | inactive: 0.899 |
| CC(O)(P(=O)(O)O)P(=O)(O)O [Etidronic acid] + CCC(C)CCCC(=O)N[C@@H](CCN)C(=O)N[C@H](C(=O)N[C@@H](CCN)C(=O)N[C@H]1CCNC(=O)[C@H]([C@@H](C)O)NC(=O)[C@H](CCN)NC(=O)[C@H](CCN)NC(=O)[C@H](CC(C)C)NC(=O)[C@@H](CC(C)C)NC(=O)[C@H](CCN)NC1=O)[C@@H](C)O [colistin] | inactive: 1.02 |
| Cc1ccc(-c2cc(C(F)(F)F)nn2-c2ccc(S(N)(=O)=O)cc2)cc1 [Celecoxib] + CCC(C)CCCC(=O)N[C@@H](CCN)C(=O)N[C@H](C(=O)N[C@@H](CCN)C(=O)N[C@H]1CCNC(=O)[C@H]([C@@H](C)O)NC(=O)[C@H](CCN)NC(=O)[C@H](CCN)NC(=O)[C@H](CC(C)C)NC(=O)[C@@H](CC(C)C)NC(=O)[C@H](CCN)NC1=O)[C@@H](C)O [colistin] | inactive: 1.08 |
| CC(C)c1ccc2oc3nc(N)c(C(=O)O)cc3c(=O)c2c1 [Amlexanox] + CCC(C)CCCC(=O)N[C@@H](CCN)C(=O)N[C@H](C(=O)N[C@@H](CCN)C(=O)N[C@H]1CCNC(=O)[C@H]([C@@H](C)O)NC(=O)[C@H](CCN)NC(=O)[C@H](CCN)NC(=O)[C@H](CC(C)C)NC(=O)[C@@H](CC(C)C)NC(=O)[C@H](CCN)NC1=O)[C@@H](C)O [colistin] | inactive: 0.93 |
| COc1cc(N)c(Cl)cc1C(=O)NC1CCN(CCCOc2ccc(F)cc2)CC1OC (stereo not given) [Cisapride] + CCC(C)CCCC(=O)N[C@@H](CCN)C(=O)N[C@H](C(=O)N[C@@H](CCN)C(=O)N[C@H]1CCNC(=O)[C@H]([C@@H](C)O)NC(=O)[C@H](CCN)NC(=O)[C@H](CCN)NC(=O)[C@H](CC(C)C)NC(=O)[C@@H](CC(C)C)NC(=O)[C@H](CCN)NC1=O)[C@@H](C)O [colistin] | inactive: 1.07 |
| CN(C)CCc1c[nH]c2ccc(CS(=O)(=O)N3CCCC3)cc12 [Almotriptan Malate] + CCC(C)CCCC(=O)N[C@@H](CCN)C(=O)N[C@H](C(=O)N[C@@H](CCN)C(=O)N[C@H]1CCNC(=O)[C@H]([C@@H](C)O)NC(=O)[C@H](CCN)NC(=O)[C@H](CCN)NC(=O)[C@H](CC(C)C)NC(=O)[C@@H](CC(C)C)NC(=O)[C@H](CCN)NC1=O)[C@@H](C)O [colistin] | inactive: 1.13 |

Rewritten bar-delimited: entries from further up.
Compound | OD600
CC(O)(P(=O)(O)O)P(=O)(O)O [Etidronic acid] + CCC(C)CCCC(=O)N[C@@H](CCN)C(=O)N[C@H](C(=O)N[C@@H](CCN)C(=O)N[C@H]1CCNC(=O)[C@H]([C@@H](C)O)NC(=O)[C@H](CCN)NC(=O)[C@H](CCN)NC(=O)[C@H](CC(C)C)NC(=O)[C@@H](CC(C)C)NC(=O)[C@H](CCN)NC1=O)[C@@H](C)O [colistin] | inactive: 1.02
Cc1ccc(-c2cc(C(F)(F)F)nn2-c2ccc(S(N)(=O)=O)cc2)cc1 [Celecoxib] + CCC(C)CCCC(=O)N[C@@H](CCN)C(=O)N[C@H](C(=O)N[C@@H](CCN)C(=O)N[C@H]1CCNC(=O)[C@H]([C@@H](C)O)NC(=O)[C@H](CCN)NC(=O)[C@H](CCN)NC(=O)[C@H](CC(C)C)NC(=O)[C@@H](CC(C)C)NC(=O)[C@H](CCN)NC1=O)[C@@H](C)O [colistin] | inactive: 1.08
